## Percent effect of library compounds

Protein sequences, listed by entry. Tags and fused reporters are not part of them. Residues count along the entry.
UniProt P9WFT3, whole entry: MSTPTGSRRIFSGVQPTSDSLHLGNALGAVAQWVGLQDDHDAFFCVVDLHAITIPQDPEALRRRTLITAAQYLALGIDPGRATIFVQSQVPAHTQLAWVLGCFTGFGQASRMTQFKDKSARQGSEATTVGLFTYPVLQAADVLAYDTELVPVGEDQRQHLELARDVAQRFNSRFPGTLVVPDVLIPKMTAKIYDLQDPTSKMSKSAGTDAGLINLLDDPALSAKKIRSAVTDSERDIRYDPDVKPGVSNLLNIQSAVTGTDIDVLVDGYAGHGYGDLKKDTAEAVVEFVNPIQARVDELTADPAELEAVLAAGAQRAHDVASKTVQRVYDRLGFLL
UniProt I6X8D2, whole entry: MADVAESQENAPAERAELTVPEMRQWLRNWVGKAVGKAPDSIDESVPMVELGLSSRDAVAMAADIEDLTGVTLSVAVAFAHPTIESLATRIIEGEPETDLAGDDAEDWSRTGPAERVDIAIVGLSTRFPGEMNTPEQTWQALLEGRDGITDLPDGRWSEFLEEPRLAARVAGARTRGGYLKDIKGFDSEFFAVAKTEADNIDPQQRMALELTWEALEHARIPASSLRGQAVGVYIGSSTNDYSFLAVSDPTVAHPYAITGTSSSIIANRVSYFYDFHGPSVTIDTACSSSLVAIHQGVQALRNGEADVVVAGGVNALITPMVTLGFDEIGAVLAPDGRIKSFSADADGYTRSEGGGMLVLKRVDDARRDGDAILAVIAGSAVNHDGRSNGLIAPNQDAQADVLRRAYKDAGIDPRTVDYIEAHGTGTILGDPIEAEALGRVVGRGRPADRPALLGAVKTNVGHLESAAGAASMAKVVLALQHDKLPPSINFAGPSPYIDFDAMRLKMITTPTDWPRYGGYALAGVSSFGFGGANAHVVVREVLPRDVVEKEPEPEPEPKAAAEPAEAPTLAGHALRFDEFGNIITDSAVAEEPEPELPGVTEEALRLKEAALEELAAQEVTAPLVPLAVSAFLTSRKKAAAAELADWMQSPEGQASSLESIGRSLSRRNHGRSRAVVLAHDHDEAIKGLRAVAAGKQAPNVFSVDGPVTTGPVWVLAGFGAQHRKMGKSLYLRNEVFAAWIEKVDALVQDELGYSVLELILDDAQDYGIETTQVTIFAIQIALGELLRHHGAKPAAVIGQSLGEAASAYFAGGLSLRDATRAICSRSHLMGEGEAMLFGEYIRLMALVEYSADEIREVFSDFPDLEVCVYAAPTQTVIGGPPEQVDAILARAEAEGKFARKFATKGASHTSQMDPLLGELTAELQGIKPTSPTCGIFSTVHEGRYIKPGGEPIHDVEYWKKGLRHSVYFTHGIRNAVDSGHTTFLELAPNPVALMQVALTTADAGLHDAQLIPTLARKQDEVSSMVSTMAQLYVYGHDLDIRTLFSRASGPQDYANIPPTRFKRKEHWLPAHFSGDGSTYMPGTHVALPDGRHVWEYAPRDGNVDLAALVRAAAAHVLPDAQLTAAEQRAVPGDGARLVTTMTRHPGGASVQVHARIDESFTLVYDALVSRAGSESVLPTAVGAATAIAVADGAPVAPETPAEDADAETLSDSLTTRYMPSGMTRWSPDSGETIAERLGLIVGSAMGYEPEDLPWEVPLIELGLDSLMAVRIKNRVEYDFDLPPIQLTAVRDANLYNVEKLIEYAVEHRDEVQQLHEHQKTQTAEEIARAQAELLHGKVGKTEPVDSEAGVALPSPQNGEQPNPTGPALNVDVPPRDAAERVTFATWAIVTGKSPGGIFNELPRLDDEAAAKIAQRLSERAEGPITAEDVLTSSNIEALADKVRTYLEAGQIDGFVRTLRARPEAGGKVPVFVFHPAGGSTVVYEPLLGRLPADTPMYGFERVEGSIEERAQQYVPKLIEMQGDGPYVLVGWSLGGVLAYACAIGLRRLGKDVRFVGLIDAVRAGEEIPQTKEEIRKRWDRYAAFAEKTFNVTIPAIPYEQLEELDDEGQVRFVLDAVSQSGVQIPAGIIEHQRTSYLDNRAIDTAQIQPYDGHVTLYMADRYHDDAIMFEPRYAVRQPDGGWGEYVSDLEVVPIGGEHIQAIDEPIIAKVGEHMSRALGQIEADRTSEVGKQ
UniProt Q4DA54, 1-478: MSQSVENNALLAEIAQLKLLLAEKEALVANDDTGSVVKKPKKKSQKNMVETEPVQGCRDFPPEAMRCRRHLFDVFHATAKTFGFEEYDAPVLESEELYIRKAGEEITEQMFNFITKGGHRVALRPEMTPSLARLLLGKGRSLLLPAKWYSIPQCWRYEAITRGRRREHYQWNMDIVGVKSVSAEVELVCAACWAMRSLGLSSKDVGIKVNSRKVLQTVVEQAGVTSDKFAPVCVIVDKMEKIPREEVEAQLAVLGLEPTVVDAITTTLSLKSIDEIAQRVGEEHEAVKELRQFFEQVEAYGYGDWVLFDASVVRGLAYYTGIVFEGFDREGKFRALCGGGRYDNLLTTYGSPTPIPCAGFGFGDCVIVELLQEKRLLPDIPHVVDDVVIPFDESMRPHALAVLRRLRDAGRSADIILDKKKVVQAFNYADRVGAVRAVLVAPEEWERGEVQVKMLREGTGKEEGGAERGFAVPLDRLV

Measurements from “University of Dundee, Small-Polar-MMV Screening Library” (2021), ChEMBL document CHEMBL3988442.

Results are given as percent effect. The controls that fix the scale are not given in the record; negative values are as filed. The compounds are a random part of those screened. Two or more numbers in one place are separate tests of the same structure; such repeats can differ widely. A dash means the value is not listed here; it may have been measured.

MtTrpRS: 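Enzyme assay of tryptophanyl-tRNA synthetase; the read-out is not stated. Target: Tryptophan-tRNA ligase, Mycobacterium tuberculosis (UniProt P9WFT3). Concentration: 10 µM. Direction is not recorded; retested compounds ran higher, which suggests that high means inhibition. About 65,000 compounds were tested under these conditions; 0.098% (about 64) showed 50% or more at least once.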
Leishmania in macrophages: 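Cell assay of Leishmania donovani living inside macrophages; the read-out is not stated. Concentration: 30 µM. Higher reads as stronger inhibition (inferred: compounds with an IC50 in retests scored well above the rest). Size under these conditions: about 69,000 compounds, about 1,000 of them at 50% or above in at least one test.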
Pks13 thioesterase: 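Polyketide synthase Pks13, Mycobacterium tuberculosis (UniProt I6X8D2). Enzyme assay of the thioesterase domain of polyketide synthase 13; the read-out is not stated. Concentration: 30 µM. The record gives no direction; the compounds picked for IC50 retests had high values, so higher reads as stronger inhibition. About 67,000 compounds were tested under these conditions; 0.46% (about 300) showed 50% or more at least once.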
TcHisRS: 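Histidine-tRNA ligase, Trypanosoma cruzi CL Brener (UniProt Q4DA54). Enzyme assay of histidyl-tRNA synthetase; the read-out is not stated. Concentration: 30 µM. Higher reads as stronger inhibition (inferred: compounds with an IC50 in retests scored well above the rest). Of about 69,000 compounds tested this way, about 31 (0.045%) reached 50% or more in at least one test.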

structure | MtTrpRS | Leishmania in macrophages | Pks13 thioesterase | TcHisRS
CC(=O)c1cn(CCC(=O)NCCCC(=O)O)c2ccccc12 | 9.331% | 29.07% | -0.9375% | 0%
COCC(=O)NCC1Cn2nnc(-c3ccncc3)c2CO1.O=C(O)C(F)(F)F (stereo not drawn) | - | -9.562% | - | -
[H][C@@]12CC[C@H](Oc3cccc(F)c3)[C@]1([H])CN(C(=O)c1ccnnc1)C2 | - | -8.299% | - | -
CCC(=O)N1CCCC(C(=O)NCc2noc(Cc3ccccc3)n2)C1 (stereo not drawn) | 0.6224% | 11.12% | -9.685% | 4.819%
O=S1(=O)C[C@@H]2[C@H](C1)N(Cc1ccc3ccccc3c1)CCN2CC1CC1 | 4.285% | - | -10.86% | 1.117%
CCS(=O)(=O)N1Cc2c(Cn3ccnc3)nn(C)c2C1 | -1.904% | -1.113% | -2.869% | 2.674%
CCN(C(=O)Nc1nncs1)C(C)c1cccc(OC)c1 (stereo not drawn) | 3.047% | -19.84% | -36.99% | 3.017%
CN1CCN(CCO)C(=O)C12CCN(Cc1ccsc1)CC2 | 2.214% | - | - | 7.519%
COCC(C)NC(=O)CCSc1ccc(F)cc1 (stereo not drawn) | 8.997% | -21.34% | 26.35% | 4.04%
NC(=O)CCCNC(=O)c1cc(Br)c2c(c1)OCCO2 | -1.065% | 8.755% | - | 4.598%
CCn1c(C2CCNCC2)nn(CCn2cncn2)c1=O | 3.179% | 5.055% | -1.483% | 8.04%
O=c1c(NCCNCCO)c(N2CCN(Cc3ccccc3)CC2)c1=O | -4.158% | 6.534% and 1.397% | -0.2617% | 0%
[H][C@@]12CCN(S(=O)(=O)N(C)C)C[C@@]1([H])O[C@H](c1ccnc(C)n1)C2 | - | -0.4047% | - | -
O=C(O)C(F)(F)F.O=C(O)C(F)(F)F.[H][C@@]12CCC(=O)N(Cc3cccc(C)n3)[C@]1([H])CCN2Cc1ccc(C)s1 | - | 7.01% | - | -
CCCC(=O)NC(C(=O)OC)c1cc(F)ccc1F (stereo not drawn) | -2.756% | 10.2% | -17.25% | 4.571%
O=C(CN1CCCC1Cn1cncn1)NCC1(c2ccccc2)CC1 (stereo not drawn) | 0.6365% | -10.36% | - | 4.911%
Cn1cc(C2CCCN2C(=O)Cn2c(=O)oc3ccccc32)cn1 (stereo not drawn) | -3.199% | 19.01% | -24.88% | 9.392%
CC(=O)Nc1ncc(S(=O)(=O)Nc2cccc(O)c2)s1 | -2.85% | 53.03% | -27.95% | 4.348%
CCS(=O)(=O)NCC(=O)N1CCC(c2cc3ccccc3[nH]2)CC1 | 1.633% | -20.74% | -1.83% | 5.357%
O=C(c1cc(-c2ccco2)nc2c(Cl)cccc12)N1CC[C@H]2CNC[C@H]21 | 2.377% | - | -13.42% | 11.69%
Cc1cc(C(=O)NCC(C)C)c2c(C3CCCN3)noc2n1 (stereo not drawn) | -11.5% | 2.822% | 2.242% | 2.959%
Cc1nc(C)n(CC2CCCCN2CC(=O)Nc2c(C)n[nH]c2C)n1 (stereo not drawn) | -7.696% | 5.313% | -12.21% | 4.706%
Fc1cccnc1O[C@@H]1CN(Cc2ccccn2)[C@@H]2CCCO[C@@H]21 | 0.2766% | - | 7.611% | 0%
Cc1cccc(CN2C(=O)CO[C@@H]3CN(CCO)C[C@H]32)c1 | 4.878% | - | -4.292% | 3.743%
O=C(CCn1ccnc1)N1CCC(c2nnc(-c3ccccn3)o2)CC1 | 22.65% | -28.33% | -32.14% | -1.13%
CC(C)c1nc(C2CCCN2C(=O)CCn2cncn2)no1 (stereo not drawn) | -9.862% | 15.86% | -3.063% | 0%
CCc1nc(CN(C)C2CCN(CCC(=O)N3CCCCC3)C2)no1 (stereo not drawn) | -2.855% | 22.94% | -8.104% | 8.069%
CC1CCCCN1C(=O)c1nc2c(n1C(C)C)CCN(C(=O)C1CC1)C2 (stereo not drawn) | -5.502% | 3.008% | -22.32% | 3.797%
Cc1noc(CNC(=O)C2CSCCC(=O)N2)n1 (stereo not drawn) | -3.118% | -0.9456% | -2.58% | 7.212%
Cn1ccc(C(=O)NCc2cccc(N3CCCCC3=O)c2)cc1=O | 3.302% | 8.974% | 14.48% | 3.422%
O=C(c1cc(-c2ccco2)nc2c(Cl)cccc12)N1CCS(=O)(=O)CC1 | 3.226% | 26.58% | -5.09% | 3.896%
CC(C)N1CCN(c2ccc3ccc(C(=O)NC4CCCC4)cn23)CC1 | 10.9% | - | -29.5% | 60.19%
Cn1ccnc1CNC(=O)c1cncc(C2CCNCC2)n1 | -3.068% | - | -0.02959% | 7.91%
O=C(CC1CCCC1)N1C[C@@H]2CCN(c3cccnc3)C[C@@H]2C1 | -2.061% | - | -7.334% | 5.263%
Cc1cc(C2CCCN(C(=O)c3c(C)noc3C)C2)n[nH]1 (stereo not drawn) | -0.1059% | 1.713% | -29.6% | -2.174%
CC1N(C)C(=O)COC12CCN(Cc1ccsc1)CC2 (stereo not drawn) | -2.265% | - | 11.58% | 6.329%
[H][C@@]12CN(c3nc(C)ccc3C(N)=O)C[C@]1([H])N(C1CCCC1)C(=O)O2 | - | 17.72% | - | -
CC(C)N1CCC(NCc2cccnc2N(C)C)CC1 | 3.552% | 35.11% | -12.86% | 0.4149%
CN(Cc1ccc2c(c1)OCO2)Cc1nc(Cc2ccccc2)no1 | -2.364% | -32.13% | 1.018% | 9.677%
Cc1nc(C)c(C(=O)N2CCc3cc(F)ccc3C2C)o1 (stereo not drawn) | 4.891% | 29.41% | -28.55% | 8.247%
CO[C@@H]1CCN(S(=O)(=O)c2cccs2)[C@H]1Cc1cccnc1 | -0.9053% | - | -26.83% | 5.911%
Cn1ccc2c(C(=O)NCCCS(C)(=O)=O)cccc21 | -1.887% | 8.655% | 15.06% | -1.111%
CS(=O)(=O)NCCN1CCCC1c1noc(C2CC2)n1 (stereo not drawn) | 8.596% | -12.76% | -5.667% | 5.714%
CNC(=O)C1CN(Cc2c[nH]cn2)CCN(C2CCOCC2)C1 (stereo not drawn) | - | -3.431% | -19.28% | -2.247%
CC(C)S(=O)(=O)N1CCN(C(=O)c2cnn(C)c2Cl)CC1 | -0.9067% | -71.66% | -5.218% | 0.8696%
CC(=O)N1CCC(C(=O)N2CCC2c2nc(-c3ccc(C)s3)no2)CC1 (stereo not drawn) | 56.72% | -38.86% | -14.07% | -1.13%
COc1ccc(CN(Cc2cncn2C)CC2CCCO2)cc1OC (stereo not drawn) | 0.7525% | - | -187% | 0.5405%
CCCS(=O)(=O)NCc1cccnc1Oc1ccc(C)c(F)c1F | 1.347% | 8.375% | -15.38% | 2.041%
O=c1c2ccccc2nc2n1C(CSc1ccc(F)cc1)CN2 (stereo not drawn) | 11.29% | -4.197% | -16.88% | 2.083%
CCO[C@H]1CN(C(=O)c2ccc3c(c2)OCO3)[C@@H]2COC[C@H]12 | -3.585% | - | - | 1.227%
CC(C)OC(=O)N1C[C@H]2CC[C@@H]1CN(C(=O)c1ccccc1)C2 | 0.9338% | - | 5.429% | 6.818%
Cn1c2c(ccc1=O)CC(NC(=O)Cc1ccsc1)CC2 (stereo not drawn) | -0.3526% | -18.47% | -28.43% | 6.952%

The first 4 entries again:

{"structure": "CC(=O)c1cn(CCC(=O)NCCCC(=O)O)c2ccccc12", "MtTrpRS": 9.331, "Leishmania in macrophages": 29.07, "Pks13 thioesterase": -0.9375, "TcHisRS": 0}
{"structure": "COCC(=O)NCC1Cn2nnc(-c3ccncc3)c2CO1.O=C(O)C(F)(F)F", "stereo": "stereo not drawn", "Leishmania in macrophages": -9.562}
{"structure": "[H][C@@]12CC[C@H](Oc3cccc(F)c3)[C@]1([H])CN(C(=O)c1ccnnc1)C2", "Leishmania in macrophages": -8.299}
{"structure": "CCC(=O)N1CCCC(C(=O)NCc2noc(Cc3ccccc3)n2)C1", "stereo": "stereo not drawn", "MtTrpRS": 0.6224, "Leishmania in macrophages": 11.12, "Pks13 thioesterase": -9.685, "TcHisRS": 4.819}